These are yes or no findings as the source states them, for the method shown. Binding seen in cells or lysates may run through a third protein. A result given as binding can be weak or reduced; the word gives no strength.
Target: T1, calcium and integrin binding protein-1 (CIB1) (human (endogenous in HMVEC-d)) (UniProt Q99828)
T1 sequence: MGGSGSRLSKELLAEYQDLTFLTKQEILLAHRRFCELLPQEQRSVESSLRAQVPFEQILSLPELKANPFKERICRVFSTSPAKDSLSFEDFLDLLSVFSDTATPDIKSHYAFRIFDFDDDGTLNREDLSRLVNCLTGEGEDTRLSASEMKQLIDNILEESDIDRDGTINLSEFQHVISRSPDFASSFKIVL
Assay: co-IP; 200 µg lysate of serum-starved HMVEC-d cells (25 mM Tris-HCl pH 7.5, 150 mM NaCl, 1% NP40, 2 mM EDTA, 10% glycerol), overnight at 4°C with anti-CIB1 or anti-EphA2 antibody, protein G-sepharose, Western blot; cells mock or KSHV infected (5, 10, 30 min), infected with heparin-treated KSHV, or CIB1-shRNA transduced

## PI3-K (human (endogenous in HMVEC-d)) (enzyme)
  binding: binds

— article PMC3923796
